Measurements: publication PMC4776139, “Extended string-like binding of the phosphorylated HP1α N-terminal tail to the lysine 9-methylated histone H3 tail” (Scientific Reports, 2016)
No constants are given. Whether binding was seen depends on the method and setting.

The chains behind the UniProt entries cited, without tags or fusion partners. Where a name states a change or a piece, a line headed by the entry shows the natural chain unless it says otherwise. A line that says so, or that is headed by a name, gives the form on record, which may keep a tag or linker.
phosphorylated HP1α chromodomain with N-terminal tail (phos-NCD, amino acids 1–80, phosphorylated at Ser11–14) (Q61686, form named): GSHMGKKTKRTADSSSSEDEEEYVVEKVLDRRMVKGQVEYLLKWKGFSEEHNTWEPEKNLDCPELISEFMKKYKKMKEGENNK
HP1α chromodomain alone, NCDΔ1–19 (amino acids 20–80) (Q61686, form named): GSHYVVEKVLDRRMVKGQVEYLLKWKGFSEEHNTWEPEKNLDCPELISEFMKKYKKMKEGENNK

Tests used:
Assay in all cases: SAXS; molecular weight from forward scattering I(0) against lysozyme; 5, 10 and 15 mg/ml in 50 mM KPB pH 6.8, 500 mM NaCl, 5 mM DTT; 20 °C; both purified
[1] = target: un-phosphorylated HP1α chromodomain with N-terminal tail (unmod-NCD, amino acids 1–80) (mouse) (UniProt Q61686)
[2] = target: phosphorylated HP1α chromodomain with N-terminal tail (phos-NCD, amino acids 1–80, phosphorylated at Ser11–14) (mouse) (UniProt Q61686)
[3] = target: HP1α chromodomain alone, NCDΔ1–19 (amino acids 20–80) (mouse) (UniProt Q61686)

un-phosphorylated HP1α chromodomain with N-terminal tail (unmod-NCD, amino acids 1–80) (from UniProt Q61686 1-80) (domain or fragment)
binding [1]: no binding (tested: 5, 10 and 15 mg/ml)

phosphorylated HP1α chromodomain with N-terminal tail (phos-NCD, amino acids 1–80, phosphorylated at Ser11–14) (from UniProt Q61686 1-80) (domain or fragment)
binding [2]: no binding (tested: 5, 10 and 15 mg/ml)

HP1α chromodomain alone, NCDΔ1–19 (amino acids 20–80) (from UniProt Q61686 20-80) (domain or fragment)
binding [3]: no binding (tested: 5, 10 and 15 mg/ml)
